Experimental data published in US20100190751A1, “NOVEL COMBINATION OF NERAMEXANE FOR TREATMENT OF NERORDEGENERATIE DISORDERS” (MERZ PHARMA GmbH & CO. KGaA, priority 2007, published 2010).

Test system: SOD1(G93A) transgenic mouse model of ALS
Assay: Motor performance in the running wheel, SOD1(G93A) ALS mouse model
Assay type: in vivo
Experimental: Drug treatment starts at day 45.
Memantine is supplied by MERZ pharmaceuticals. […] Drugs are dissolved in drinking water. […] Memantine is administered twice a day subcutaneously.
Consumption of drinking water is checked randomly.
4. Motor Performance in the running wheel

Compound: Nc1nc2ccc(OC(F)(F)F)cc2s1 [Riluzole, 2-amino-6-trifluromethoxybenzothiazole]
- Half Maximum Performance (both gender): 103.9 days
- Half Maximum Performance, Difference (versus vehicle control 106.1): -2.2 days
